This is an account of results in patent EP3797769A1, “COMPOSITION FOR THERAPEUTIC USE” (Fontès, M. Michel, priority 2019, dated 2021).

The structures appear in SMILES notation.

The assay has as its system connexon. The note with it: fibroblasts of the CMTX patient, one day with clémastine 10 µM; LY 110 µM, two hours incubation, fluorescence (Figure 2).

`CN1CCC[C@@H]1CCO[C@](C)(c1ccccc1)c1ccc(Cl)cc1` [clémastine]: the activité connexon entry is reported as “restaure l'activité connexon”.
